The test is described as follows: qHTS Assay for Lipid Storage Modulators in Drosophila S3 Cells.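 For cell number change: cells counted by Cell Tracker Red CMTPX staining in the red channel.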 Particulars: BODIPY lipid droplet fluorescence, 18-24 h; for cell number change: measured here: cell count max response, cells fed with added oleic acid. The gist of the method: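 Drosophila S3 cells loaded with oleic acid (400 uM, as added) and compounds at several concentrations; lipid droplets imaged by 488-nm laser-scanning cytometry, 500–530 nm intensity and object ratio to cell channel. Percent activity normalized to 20 uM Triacsin C.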
A general note: Quantitative high-throughput screening tests each substance at several concentrations.

[1] abbreviates: measured here: cell number channel AC50, cells fed with added oleic acid.
[2] abbreviates: measured here: lipid fluorescence (Fed channel) AC50, cells fed with added oleic acid.

In PubChem BioAssay AID2685 (National Center for Advancing Translational Sciences (NCATS), 2010) one finds cell number change and AC50 data, which are given here for 40 molecules.

Some of the results follow. Further columns of the screen follow, without active or inactive calls. Most of these compounds were active or inconclusive in the main read-out, so they are no random draw. The note in brackets gives the kind of curve behind each potency; many fits are weak.

The term AC50 denotes the midpoint of the concentration-response curve, whichever way the signal moves. A higher AC50 goes with weaker potency.

For the molecule `CC(C)CN1C(=O)/C(=C/c2c(N3CCc4ccccc4C3)nc3ccccn3c2=O)SC1=S`, the cell number change amounted to 25%. Besides, under setting [1], the concentration at half-maximal activity (AC50) is 4.61 µM [rising, partial curve, poor fit]. Moreover, the AC50 under setting [2] was 4.61 µM [falling, single point].

In the case of `OC(CNCC1COc2ccccc2O1)COc1ccc(Cl)cc1` (centres undefined), the cell number change was -21.7%.

Regarding `Cc1ccc(NC(=O)c2cccc(S(=O)(=O)N3CCN(C)CC3)c2)cc1F`, the cell number change was found to be 1.8%.

In the case of `CC(=O)N=Nc1[nH]c(N)c2ccccc12`, the cell number change was 24.7%. Moreover, the concentration at half-maximal activity (AC50) under setting [2] is 18.4 µM [rising, single point].

On to `Nc1cc(C(=O)c2ccccc2)ccc1[N+](=O)[O-]`, for which the cell number change is -6.38%. The concentration at half-maximal activity (AC50) under setting [1] is 0.164 µM [falling, full curve, poor fit].

With `CC(C)CN(CC(C)C)C(=O)Nc1cccc([N+](=O)[O-])c1`, the cell number change was -25.5%. The AC50 under setting [1] is 0.0731 µM [rising, full curve, poor fit]. Also, the AC50 under setting [2] was 16.4 µM [falling, single point].

With `Cc1oc2c(CN3CCCCC3)c(O)ccc2c(=O)c1-c1ccc(Br)cc1`, the cell number change was 25%. For the same molecule, under setting [2], the AC50 was 4.11 µM [falling, single point].

For the molecule `CC(=O)N1CCN(c2ccccc2NC(=O)c2ccc(-c3cccc([N+](=O)[O-])c3)o2)CC1`, the cell number change is 4.07%.

Regarding `O=S(=O)(Cc1cc(Cl)nc(-c2cccnc2)n1)c1ccccc1`, under setting [1], the AC50 was 5.8 µM [falling, single point].

On to `O=C(COc1ccc(S(=O)(=O)NC2CCCCC2)cc1Cl)Nc1ccc2c(c1)OCO2`, for which the cell number change is -9.2%. In addition, the AC50 under setting [2] is 29.1 µM [rising, single point].

Regarding `Cc1ccc(S(=O)(=O)N2CCN(C(=O)c3ccccc3OCc3c(C)noc3C)CC2)cc1`, the cell number change is -8.76%.

Consider `CCC(C(=O)Nc1c2c(nn1C(C)(C)C)CS(=O)(=O)C2)c1ccccc1` (centres undefined), for which the cell number change turned out to be 20.5%. The AC50 under setting [1] was 0.82 µM [rising, full curve, poor fit]. Besides, the AC50 under setting [2] was 0.326 µM [rising, full curve, poor fit].

As to `CCc1nnc(NC(=O)c2ccc(-c3ccccc3F)o2)s1`, the cell number change is -17.7%.

In the case of `CCCc1nc(SCC(=O)Nc2cc(C)on2)c2c(=O)n(C)c(=O)n(C)c2n1`, the cell number change was found to be 13.5%. In addition, the AC50 under setting [1] was 7.31 µM [falling, single point]. Besides, the AC50 under setting [2] was 0.0731 µM [rising, full curve, poor fit].

For `O=C(OCc1cccc(F)c1)c1cc2ccccc2cc1O`, the cell number change is 33.2%. Further, the AC50 under setting [2] was 0.58 µM [rising, single point].

Turning to `COc1cc(NC(=S)NCCC(c2ccccc2)c2ccccc2)cc(OC)c1`, the cell number change worked out at 6.96%. The AC50 under setting [2] was 0.58 µM [rising, full curve].

As for `Cc1cccc(C2c3[nH]c4ccccc4c3CCN2C(=O)c2cc(-c3cccn3C)n[nH]2)n1` (centres undefined), the cell number change was -21.4%. Under setting [2], the AC50 was 3.26 µM [falling, single point].

As for `CC(C)(C)n1nc2c(c1NC(=O)Cc1ccc(F)cc1)CS(=O)(=O)C2`, under setting [2], the AC50 is 3.26 µM [falling, single point].

On to `COc1ccc(N(C)C(=O)c2ccc(NC(=O)CCS(=O)(=O)c3cccs3)cc2)cc1`, for which the cell number change is -2.7%. For the same molecule, the AC50 under setting [2] is 29.1 µM [rising, single point].

For the molecule `CCN(CC)C(=O)CSc1nnc(CCCCCNC(=O)OC(C)(C)C)o1`, the cell number change amounted to 1.46%.

On to `COc1ccc2nc(NC(=O)c3cccnc3SC)sc2c1`, for which the cell number change is -83.3%. For the same molecule, the AC50 under setting [1] is 29.1 µM [falling, single point]. Moreover, the AC50 under setting [2] was 0.517 µM [rising, full curve, poor fit].

As to `Cc1cc(C)n(-c2nc3ccccc3nc2N2CCN(S(=O)(=O)c3ccc(F)c(C)c3)CC2)n1`, the cell number change is 9.13%. Also, the AC50 under setting [2] is 2.06 µM [rising, partial curve, poor fit].

For the molecule `CCn1c(CSCc2ccc(C)cc2)nnc1SCC(=O)NCc1ccccc1`, under setting [2], the AC50 is 16.4 µM [falling, single point].

Turning to `CCOCCOC(=O)C1=C(C)N(C)C(=O)NC1c1cc(Cl)c(O)c(OC)c1` (centres undefined), the AC50 under setting [2] is 18.4 µM [rising, single point].

Regarding `c1ccc(CCNC2=NCCS2)cc1`, the cell number change was found to be 10.3%. Moreover, under setting [2], the AC50 was 29.1 µM [falling, single point].

For `Cc1c(C(=O)Nc2ccc(-c3nnc4n3CCCCC4)cc2)oc2ccc(Br)cc12`, the cell number change was 8.75%. The AC50 under setting [2] is 0.58 µM [rising, full curve, poor fit].

With `CNC(=S)N(CCc1c(C)[nH]c2ccc(C)cc12)Cc1cccnc1`, the cell number change was -5.39%. The AC50 under setting [2] is 1.84 µM [falling, single point].

In the case of `O=C(CCn1nnc2ccccc21)OCC(=O)c1ccc(F)cc1`, the cell number change was -2.86%.

`O=C(c1cccc(F)c1)N1CCN(c2cc(N3CCCCC3)c(F)cc2[N+](=O)[O-])CC1`: the concentration at half-maximal activity (AC50) under setting [2] was 4.11 µM [rising, single point].

Regarding `CCCCNc1nc2c(c(=O)n(Cc3ccccc3)c(=O)n2C)n1C`, the cell number change is -22.1%. Moreover, the AC50 under setting [2] is 29.1 µM [falling, single point].

For `CC(C)NCc1cccc([N+](=O)[O-])c1`, the cell number change is 2.2%.

`Cc1ccc(N2CC(C(=O)Nc3cc(C(F)(F)F)ccc3N3CCCC3)CC2=O)cc1` (centres undefined): the cell number change worked out at 13.6%. Under setting [2], the AC50 is 0.82 µM [rising, single point].

For `CCc1cc(=O)oc2c(CNCc3c(F)cccc3Cl)c(O)ccc12`, the cell number change came to 8.97%.

As to `Cc1ccccc1CN1CCN(CC(=O)NCc2ccc3c(c2)OCO3)C1=O`, the cell number change was -7.65%. The AC50 under setting [2] is 32.6 µM [falling, single point].

Turning to `CN(NC(=O)c1ccccc1)C1=NS(=O)(=O)c2ccccc21`, the cell number change turned out to be 8.92%. Also, the AC50 under setting [2] was 3.26 µM [rising, partial curve, poor fit].

`O=C(Nc1ccc(N2CCOCC2)cc1)C1CCN(S(=O)(=O)Cc2ccccc2)CC1`: the cell number change is 21.8%.

As to `O=C(Nc1ccc(CN2CCOCC2)cc1)c1ccc(-c2cccc([N+](=O)[O-])c2)o1`, the AC50 under setting [2] is 5.17 µM [falling, partial curve].

Turning to `CC(C)C(C)NC(=O)CN1C(=O)NC2(CCc3ccccc3C2)C1=O` (centres undefined), the cell number change worked out at 24.1%. Also, the AC50 under setting [1] was 3.66 µM [falling, single point]. The AC50 under setting [2] was 6.51 µM [falling, single point].

For `CCCNC(=O)CS(=O)Cc1nc(-c2ccccc2C)oc1C` (centres undefined), the cell number change was 2.44%.

As for `CS(=O)(=O)N(Cc1ccc(Cl)cc1)c1ccc(C(=O)NCCSc2ccccn2)cc1`, the cell number change is 6.15%. Further, the AC50 under setting [2] is 4.61 µM [rising, full curve].
